This list holds what a sample rich in hits left over. Results filed as inconclusive are left out. Active and inactive are the calls of the source. Calls follow the shape of the dose curve; as a rule, active = well fitted activation curve with a large enough effect; inconclusive = small, poorly fitted or top-dose-only effect, or another doubt; inactive = no such curve, though single readings can be large or run the other way.

The assay is described as follows: Primary qHTS for Identification of Small Molecule Activators of Huntingtin-Antisense Promoter Activity. Also: nearly all actives have a fitted effect of over 55% in size. As to conditions: HEK293 HTT-AS promoter firefly luciferase reporter (activity 0% = vehicle and -100% = no light), 24 h; at 57.5 µM (top of the series). An excerpt:
Assay Provider: Russell L. Margolis M.D.
Department Neurology, Johns Hopkins University School of Medicine, Baltimore, MD
Huntington's Disease (HD) is a neurodegenerative disorder caused by a CAG repeat expansion in exon 1 of huntingtin (HTT). While there are currently no disease-modifying treatments for HD, recent efforts have focused on development of nucleotide-based therapeutics to lower HTT expression. As an alternative to siRNA or oligonucleotide methods, we hypothesized that suppression of HTT expression might be accomplished by small molecules that either (1) directly decrease HTT expression by suppressing HTT promoter activity or (2) indirectly decrease HTT expression by increasing the promoter activity of HTT-AS, the gene antisense to HTT that appears to inhibit expression of HTT. […]
7; Detection; Luminescence; FLuc […]
1; High-throughput screening, measuring luminescence from a Hek293 luciferase reporter, was performed in 1,536 well white-walled tissue-culture treated plates. […]
4; Cells were then incubated for 24 hours at 37 degrees C prior to luminescence measurements.
5; In all cases, luminescence was measured using the Dual-Glo Luciferase Reporter Assay System (Promega) following the manufacturer's instructions. […]
7; Luminescence signal was obtained using the PerkinElmer ViewLux plate reader. […]
Turning to `CC(C)(C)c1ccc(O)cc1`, the activity change, positive = activation was inactive: 0.659%.

The values are drawn from PubChem BioAssay AID1508624 (National Center for Advancing Translational Sciences (NCATS), 2021).
